In paper PMC3000344:
These are yes or no findings as the source states them, for the method shown. In cells and extracts the contact can be indirect. Some results given as binding are weak or reduced against the parent protein; the word gives no strength.

Protein sequences, listed by entry. Tags and fused reporters are not part of them. Lines headed by an entry give the natural chain unless they say otherwise; changes in a name come on top. Residues count along the entry.
UniProt P09527: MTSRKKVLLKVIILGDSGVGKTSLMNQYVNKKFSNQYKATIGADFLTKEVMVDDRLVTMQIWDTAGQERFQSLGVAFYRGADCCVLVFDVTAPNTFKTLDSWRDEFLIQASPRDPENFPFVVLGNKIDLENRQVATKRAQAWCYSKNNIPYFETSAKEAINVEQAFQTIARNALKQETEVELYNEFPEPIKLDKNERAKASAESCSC
UniProt P18067: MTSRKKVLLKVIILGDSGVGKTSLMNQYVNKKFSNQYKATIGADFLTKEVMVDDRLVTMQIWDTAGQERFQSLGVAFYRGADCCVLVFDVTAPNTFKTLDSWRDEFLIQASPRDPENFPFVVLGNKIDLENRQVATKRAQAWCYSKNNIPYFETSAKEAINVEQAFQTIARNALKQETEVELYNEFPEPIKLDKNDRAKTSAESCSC
UniProt P35739, residues 33-799: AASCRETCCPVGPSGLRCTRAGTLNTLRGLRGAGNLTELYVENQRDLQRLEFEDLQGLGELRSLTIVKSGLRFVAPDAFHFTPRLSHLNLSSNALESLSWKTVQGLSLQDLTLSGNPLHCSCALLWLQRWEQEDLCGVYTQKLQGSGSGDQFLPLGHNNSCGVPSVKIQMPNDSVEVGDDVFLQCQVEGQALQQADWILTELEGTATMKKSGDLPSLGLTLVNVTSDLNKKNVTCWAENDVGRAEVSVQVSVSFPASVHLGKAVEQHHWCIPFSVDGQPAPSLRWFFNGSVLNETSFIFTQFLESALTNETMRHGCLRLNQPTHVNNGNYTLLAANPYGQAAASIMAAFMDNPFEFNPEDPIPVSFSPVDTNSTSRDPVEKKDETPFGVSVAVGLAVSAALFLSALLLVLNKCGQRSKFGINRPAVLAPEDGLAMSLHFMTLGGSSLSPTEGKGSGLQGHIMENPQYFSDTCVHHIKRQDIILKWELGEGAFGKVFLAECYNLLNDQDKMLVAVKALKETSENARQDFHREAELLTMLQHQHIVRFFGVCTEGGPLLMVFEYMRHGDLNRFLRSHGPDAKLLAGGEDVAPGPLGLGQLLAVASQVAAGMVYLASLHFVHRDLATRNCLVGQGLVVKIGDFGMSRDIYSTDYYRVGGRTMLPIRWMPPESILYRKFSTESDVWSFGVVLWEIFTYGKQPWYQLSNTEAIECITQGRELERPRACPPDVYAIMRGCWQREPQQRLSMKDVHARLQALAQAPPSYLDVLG

Legend:
[1] = target: endogenous Rab7 (rat (endogenous in PC12)) (UniProt P09527); experiment: co-IP; PC12 cells stimulated with NGF (200 ng/ml) for 15-60 min; lysates immunoprecipitated with a pAb against Rab7, immunoblotted for TrkA, reprobed for Rab7; maximum interaction 1 h after stimulation
[2] = target: GFP-Rab7K157N (Canis lupus familiaris) (UniProt P18067); experiment: co-IP; PC12 cells transfected with GFP-Rab7 (wild type or CMT2B mutant), stimulated with NGF for 60 min; lysis in 0.5% NP40, 25 mM Tris-HCl, 100 mM NaCl, pH 7.5; immunoprecipitated with rabbit pAb against GFP and protein A Sepharose at 4°C, immunoblotted for TrkA, reprobed for GFP
[3] = target: GFP-Rab7N161T (Canis lupus familiaris) (UniProt P18067); experiment: as above
[4] = target: GFP-Rab7L129F (Canis lupus familiaris) (UniProt P18067); experiment: as above
[5] = target: GFP-Rab7V162M (Canis lupus familiaris) (UniProt P18067); experiment: as above
[6] = target: GFP-tagged wild-type Rab7 (Canis lupus familiaris) (UniProt P18067); experiment: as above

Measured: binding

nerve growth factor receptor TrkA (from UniProt P35739 33-799)
binds: [1] | [2] | [3] | [4] | [5] | [6]
